Measured values reported in article PMC5740495.
These are yes or no findings as the source states them, for the method shown. Binding seen in cells or lysates may run through a third protein. Here binding means that the protein was enriched with, or labelled near, the bait; the list need not be complete.

Amino acid sequences for entries named in this document (tags omitted).
UniProt O15131: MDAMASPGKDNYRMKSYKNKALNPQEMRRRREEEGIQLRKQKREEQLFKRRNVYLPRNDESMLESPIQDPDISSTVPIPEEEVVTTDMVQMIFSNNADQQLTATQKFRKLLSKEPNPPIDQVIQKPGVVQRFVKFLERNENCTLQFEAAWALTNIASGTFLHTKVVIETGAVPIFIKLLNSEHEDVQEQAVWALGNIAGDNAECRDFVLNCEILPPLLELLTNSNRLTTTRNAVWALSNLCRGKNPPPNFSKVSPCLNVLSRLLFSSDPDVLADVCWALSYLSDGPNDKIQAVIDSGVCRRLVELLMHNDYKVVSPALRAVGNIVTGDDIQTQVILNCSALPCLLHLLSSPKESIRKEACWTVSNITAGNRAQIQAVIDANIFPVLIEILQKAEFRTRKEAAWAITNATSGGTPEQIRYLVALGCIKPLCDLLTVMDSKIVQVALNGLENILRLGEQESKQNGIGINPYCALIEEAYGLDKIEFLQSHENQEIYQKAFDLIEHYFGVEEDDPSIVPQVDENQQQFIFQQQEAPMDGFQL
UniProt O00410: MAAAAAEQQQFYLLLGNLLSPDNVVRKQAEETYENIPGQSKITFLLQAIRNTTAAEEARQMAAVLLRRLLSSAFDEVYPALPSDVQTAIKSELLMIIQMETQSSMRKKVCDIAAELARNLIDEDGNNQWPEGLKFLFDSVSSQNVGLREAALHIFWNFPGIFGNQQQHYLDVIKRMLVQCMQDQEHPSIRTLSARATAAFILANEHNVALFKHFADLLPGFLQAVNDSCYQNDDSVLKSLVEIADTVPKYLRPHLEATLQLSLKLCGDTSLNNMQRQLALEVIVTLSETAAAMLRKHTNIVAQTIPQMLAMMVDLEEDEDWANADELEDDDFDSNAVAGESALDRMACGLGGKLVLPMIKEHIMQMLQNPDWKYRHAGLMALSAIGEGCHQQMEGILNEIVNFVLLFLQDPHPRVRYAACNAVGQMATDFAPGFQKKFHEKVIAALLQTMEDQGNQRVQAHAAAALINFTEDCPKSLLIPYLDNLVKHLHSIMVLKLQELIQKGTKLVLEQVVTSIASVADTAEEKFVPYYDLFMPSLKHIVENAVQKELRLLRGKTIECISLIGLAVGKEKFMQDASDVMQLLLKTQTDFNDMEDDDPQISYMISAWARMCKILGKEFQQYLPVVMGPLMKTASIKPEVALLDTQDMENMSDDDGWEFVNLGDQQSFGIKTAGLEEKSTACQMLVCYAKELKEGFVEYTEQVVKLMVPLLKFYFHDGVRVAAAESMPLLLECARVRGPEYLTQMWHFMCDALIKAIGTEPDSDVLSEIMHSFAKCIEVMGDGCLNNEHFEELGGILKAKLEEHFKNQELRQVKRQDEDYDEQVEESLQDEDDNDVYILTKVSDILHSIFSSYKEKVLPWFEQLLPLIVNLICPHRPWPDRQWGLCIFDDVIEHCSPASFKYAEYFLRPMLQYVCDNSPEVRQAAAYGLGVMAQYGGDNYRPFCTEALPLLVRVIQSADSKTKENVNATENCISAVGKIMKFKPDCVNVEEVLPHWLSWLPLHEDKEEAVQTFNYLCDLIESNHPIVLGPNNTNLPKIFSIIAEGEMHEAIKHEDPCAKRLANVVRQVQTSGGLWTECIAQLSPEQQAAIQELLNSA
UniProt Q92973: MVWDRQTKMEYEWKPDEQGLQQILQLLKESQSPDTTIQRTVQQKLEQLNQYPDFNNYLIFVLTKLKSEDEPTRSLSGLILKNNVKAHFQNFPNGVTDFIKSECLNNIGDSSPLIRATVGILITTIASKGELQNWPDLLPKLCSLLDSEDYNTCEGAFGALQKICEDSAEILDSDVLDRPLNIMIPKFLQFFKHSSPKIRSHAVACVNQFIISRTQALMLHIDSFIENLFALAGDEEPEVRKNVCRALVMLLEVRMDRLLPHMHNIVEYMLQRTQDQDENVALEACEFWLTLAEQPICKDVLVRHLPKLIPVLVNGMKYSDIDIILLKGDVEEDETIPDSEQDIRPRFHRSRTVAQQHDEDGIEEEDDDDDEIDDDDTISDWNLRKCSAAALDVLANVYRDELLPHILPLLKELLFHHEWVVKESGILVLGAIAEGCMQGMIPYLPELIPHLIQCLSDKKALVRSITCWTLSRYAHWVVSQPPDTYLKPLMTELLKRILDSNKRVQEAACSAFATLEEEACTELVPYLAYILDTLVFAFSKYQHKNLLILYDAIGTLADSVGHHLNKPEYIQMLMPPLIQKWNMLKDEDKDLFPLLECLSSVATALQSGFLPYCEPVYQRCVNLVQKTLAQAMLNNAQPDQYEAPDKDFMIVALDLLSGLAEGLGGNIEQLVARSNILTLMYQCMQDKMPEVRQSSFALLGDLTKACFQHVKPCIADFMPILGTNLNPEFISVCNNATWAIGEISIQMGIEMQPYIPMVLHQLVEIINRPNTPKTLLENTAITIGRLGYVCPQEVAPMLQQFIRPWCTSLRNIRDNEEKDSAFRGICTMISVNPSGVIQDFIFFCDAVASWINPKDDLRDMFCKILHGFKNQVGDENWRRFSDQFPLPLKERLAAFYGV
UniProt P49790: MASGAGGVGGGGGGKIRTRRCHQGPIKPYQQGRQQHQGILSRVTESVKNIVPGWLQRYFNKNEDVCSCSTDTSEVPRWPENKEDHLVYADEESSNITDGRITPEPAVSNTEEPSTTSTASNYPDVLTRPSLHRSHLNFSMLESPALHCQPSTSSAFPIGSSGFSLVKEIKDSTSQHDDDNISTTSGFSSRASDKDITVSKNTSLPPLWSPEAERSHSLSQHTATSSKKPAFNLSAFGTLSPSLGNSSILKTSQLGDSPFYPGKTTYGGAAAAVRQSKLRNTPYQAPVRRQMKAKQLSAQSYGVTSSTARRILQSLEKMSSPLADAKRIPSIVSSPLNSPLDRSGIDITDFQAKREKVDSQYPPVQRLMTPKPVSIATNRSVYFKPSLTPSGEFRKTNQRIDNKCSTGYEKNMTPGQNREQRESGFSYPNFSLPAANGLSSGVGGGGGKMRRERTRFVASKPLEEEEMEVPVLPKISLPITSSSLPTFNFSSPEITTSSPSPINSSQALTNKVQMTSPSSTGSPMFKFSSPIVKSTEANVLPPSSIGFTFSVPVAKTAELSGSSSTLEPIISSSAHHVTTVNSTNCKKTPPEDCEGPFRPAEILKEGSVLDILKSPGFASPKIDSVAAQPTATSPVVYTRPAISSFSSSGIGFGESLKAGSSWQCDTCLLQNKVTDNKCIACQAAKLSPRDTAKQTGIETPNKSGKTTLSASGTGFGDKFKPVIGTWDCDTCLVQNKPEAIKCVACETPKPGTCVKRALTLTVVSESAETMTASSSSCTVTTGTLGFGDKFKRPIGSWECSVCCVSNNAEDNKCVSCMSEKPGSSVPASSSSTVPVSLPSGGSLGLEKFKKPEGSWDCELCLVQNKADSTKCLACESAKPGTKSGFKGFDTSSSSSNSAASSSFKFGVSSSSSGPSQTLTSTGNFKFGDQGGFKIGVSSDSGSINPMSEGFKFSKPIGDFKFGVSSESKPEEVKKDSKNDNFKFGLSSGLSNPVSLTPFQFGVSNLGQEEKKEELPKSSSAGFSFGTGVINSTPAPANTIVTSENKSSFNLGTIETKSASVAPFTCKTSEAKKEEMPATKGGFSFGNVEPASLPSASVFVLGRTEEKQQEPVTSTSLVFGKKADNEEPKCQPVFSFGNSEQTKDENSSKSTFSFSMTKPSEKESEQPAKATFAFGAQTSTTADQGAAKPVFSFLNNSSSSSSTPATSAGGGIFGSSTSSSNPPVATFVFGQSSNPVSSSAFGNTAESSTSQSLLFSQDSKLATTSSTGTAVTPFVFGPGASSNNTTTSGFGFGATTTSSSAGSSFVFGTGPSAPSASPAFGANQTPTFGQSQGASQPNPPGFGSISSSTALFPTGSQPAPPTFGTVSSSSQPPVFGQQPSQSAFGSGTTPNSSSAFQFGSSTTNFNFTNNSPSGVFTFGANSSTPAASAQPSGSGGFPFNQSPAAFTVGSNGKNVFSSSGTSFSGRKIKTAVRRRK

What was measured:
Assay in all cases: proximity labelling; BioID, large-scale, direct identification of biotinylated peptides: same NTR-BirA* lines; biotinylated peptides eluted from streptavidin beads with 80% ACN, 20% TFA after the on-bead digest, MS
IMA6 (human) = IMA6 (human) (UniProt O15131)
IPO5 (human) = IPO5 (human) (UniProt O00410)
NXT2 (human) = biological target: T1, NXT2 (human) (UniProt Q9NPJ8)
T1 sequence: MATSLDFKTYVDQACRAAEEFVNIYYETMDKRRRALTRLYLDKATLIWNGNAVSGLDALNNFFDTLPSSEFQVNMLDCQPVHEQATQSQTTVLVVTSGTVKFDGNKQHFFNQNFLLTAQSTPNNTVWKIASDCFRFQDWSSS

TNPO1 (human) = TNPO1 (human) (UniProt Q92973)
TNPO2 (human) = biological target: T2, TNPO2 (human) (UniProt O14787)
T2 sequence: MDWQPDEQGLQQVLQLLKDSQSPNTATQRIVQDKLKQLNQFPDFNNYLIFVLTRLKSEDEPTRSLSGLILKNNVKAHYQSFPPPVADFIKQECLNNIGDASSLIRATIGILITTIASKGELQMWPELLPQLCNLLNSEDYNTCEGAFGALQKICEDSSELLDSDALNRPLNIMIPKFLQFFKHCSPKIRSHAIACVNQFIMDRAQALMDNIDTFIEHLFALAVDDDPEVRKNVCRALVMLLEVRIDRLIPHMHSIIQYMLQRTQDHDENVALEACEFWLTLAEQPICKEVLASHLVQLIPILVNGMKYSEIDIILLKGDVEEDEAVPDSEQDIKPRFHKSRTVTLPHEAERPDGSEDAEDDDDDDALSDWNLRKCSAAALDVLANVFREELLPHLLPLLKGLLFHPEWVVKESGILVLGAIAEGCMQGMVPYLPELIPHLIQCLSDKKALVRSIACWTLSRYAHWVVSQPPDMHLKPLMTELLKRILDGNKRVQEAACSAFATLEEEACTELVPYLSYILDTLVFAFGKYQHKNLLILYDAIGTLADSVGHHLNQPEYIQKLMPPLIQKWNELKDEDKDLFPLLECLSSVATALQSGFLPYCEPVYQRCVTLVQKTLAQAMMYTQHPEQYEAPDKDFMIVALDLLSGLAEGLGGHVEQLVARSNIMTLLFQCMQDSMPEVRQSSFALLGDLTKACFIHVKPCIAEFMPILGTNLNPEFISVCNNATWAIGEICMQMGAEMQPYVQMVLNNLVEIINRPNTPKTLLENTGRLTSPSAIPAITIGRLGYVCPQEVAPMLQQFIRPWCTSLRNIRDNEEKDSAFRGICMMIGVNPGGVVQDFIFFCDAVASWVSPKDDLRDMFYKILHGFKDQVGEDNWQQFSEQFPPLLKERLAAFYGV

XPO7 (human) = biological target: T3, XPO7 (human) (UniProt Q9UIA9)
T3 sequence: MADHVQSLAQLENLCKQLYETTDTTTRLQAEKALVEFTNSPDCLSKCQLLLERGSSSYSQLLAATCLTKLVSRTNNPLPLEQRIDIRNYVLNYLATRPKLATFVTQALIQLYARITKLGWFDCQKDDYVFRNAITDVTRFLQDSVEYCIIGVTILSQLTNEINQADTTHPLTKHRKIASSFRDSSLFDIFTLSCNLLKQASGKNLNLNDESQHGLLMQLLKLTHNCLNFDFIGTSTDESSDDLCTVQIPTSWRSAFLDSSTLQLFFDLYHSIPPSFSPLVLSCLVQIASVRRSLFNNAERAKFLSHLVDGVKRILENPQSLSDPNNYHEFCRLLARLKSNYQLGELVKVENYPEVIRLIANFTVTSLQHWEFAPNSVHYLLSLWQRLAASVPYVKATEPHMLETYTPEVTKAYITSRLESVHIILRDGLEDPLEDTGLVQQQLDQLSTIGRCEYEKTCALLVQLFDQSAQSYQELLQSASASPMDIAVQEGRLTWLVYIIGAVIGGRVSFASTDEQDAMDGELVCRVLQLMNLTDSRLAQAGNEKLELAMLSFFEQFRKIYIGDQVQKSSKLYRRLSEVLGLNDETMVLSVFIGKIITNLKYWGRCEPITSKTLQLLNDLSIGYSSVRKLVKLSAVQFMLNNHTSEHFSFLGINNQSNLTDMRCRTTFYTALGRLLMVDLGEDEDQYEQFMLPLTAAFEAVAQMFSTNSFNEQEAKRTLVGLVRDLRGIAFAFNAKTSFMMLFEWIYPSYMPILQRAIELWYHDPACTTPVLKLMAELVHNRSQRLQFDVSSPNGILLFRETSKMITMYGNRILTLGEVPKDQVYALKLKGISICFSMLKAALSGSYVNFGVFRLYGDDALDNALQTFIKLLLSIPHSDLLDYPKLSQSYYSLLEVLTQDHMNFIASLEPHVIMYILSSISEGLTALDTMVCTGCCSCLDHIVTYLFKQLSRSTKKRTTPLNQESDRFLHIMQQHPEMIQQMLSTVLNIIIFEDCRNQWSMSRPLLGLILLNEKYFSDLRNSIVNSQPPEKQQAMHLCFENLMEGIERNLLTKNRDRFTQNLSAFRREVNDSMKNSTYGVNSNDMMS

Q: For NUP153 (from UniProt P49790 1-1475), which binding (IMA6 (human)) is on record?
A: Its binding is “binds”.

Q: And the binding (IPO5 (human))?
A: The binding was “binds weakly”.

Q: And the binding (NXT2 (human))?
A: The binding was “binds”.

Q: What about the binding (TNPO1 (human)) of the same substance?
A: The binding was “binds”.

Q: What about the binding (TNPO2 (human)) of the same substance?
A: The binding was “binds”.

Q: And the binding (XPO7 (human))?
A: The binding was “binds”.
